Measurements published in patent publication US20190112365A1.
No constants are given. Whether binding was seen depends on the method and setting. Some entries that bind do so weakly or less than the wild type.

Chains of the proteins cited; added tags and fusions are not shown. Lines headed by an entry give the natural chain unless they say otherwise; changes in a name come on top.
UniProt P10636: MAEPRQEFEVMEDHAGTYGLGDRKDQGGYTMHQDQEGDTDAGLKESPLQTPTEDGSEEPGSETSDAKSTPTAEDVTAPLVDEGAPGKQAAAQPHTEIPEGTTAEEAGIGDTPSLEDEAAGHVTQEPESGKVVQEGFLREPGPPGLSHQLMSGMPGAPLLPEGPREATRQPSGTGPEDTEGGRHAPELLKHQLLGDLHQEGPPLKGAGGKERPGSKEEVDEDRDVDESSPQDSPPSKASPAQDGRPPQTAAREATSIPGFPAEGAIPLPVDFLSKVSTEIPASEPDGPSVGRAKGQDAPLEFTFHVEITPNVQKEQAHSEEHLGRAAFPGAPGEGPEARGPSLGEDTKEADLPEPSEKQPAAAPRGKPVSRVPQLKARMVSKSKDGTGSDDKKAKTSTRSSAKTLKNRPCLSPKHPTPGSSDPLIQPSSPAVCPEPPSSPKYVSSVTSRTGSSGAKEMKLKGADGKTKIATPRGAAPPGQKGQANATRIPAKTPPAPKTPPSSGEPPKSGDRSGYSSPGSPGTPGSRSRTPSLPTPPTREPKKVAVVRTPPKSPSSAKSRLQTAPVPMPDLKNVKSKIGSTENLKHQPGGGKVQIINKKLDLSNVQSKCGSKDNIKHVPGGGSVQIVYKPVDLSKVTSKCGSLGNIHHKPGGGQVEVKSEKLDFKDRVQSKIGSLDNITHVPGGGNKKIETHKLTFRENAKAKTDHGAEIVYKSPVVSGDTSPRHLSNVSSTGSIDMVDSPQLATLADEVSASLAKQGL

Target: Human Tau 2N4R, wild type, recombinant full length (human) (UniProt P10636)
Test: direct ELISA on coated 2N4R Tau

B1: 7G6-HCzu11-LCzu12 (antibody, human IgG1, kappa, V domains shown)
VH: EVQLLESGGGLVQPGGSLRLSCAASGYTFTTYWITWVRQAPGKGLEWVSDIYPGSSICNYNEKFKSRFTISRDNSKNTLYLQMNSLRAEDTAVYYCAKEDGYDAWFAYWGQGTLVTVSS
VL: DVQMTQSPSSLSASVGDRVTITCRSSQSILHSNGNTYLEWYQQKPGKAPKLLICKVSNRFSGVPSRFSGSGSGTDFTLTISSLQPEDFATYYCFQGSHVPFTFGQGTKLEIKR
B1 was tested, and the binding was “binds”.
